Results are given in words; binding and its absence hold for the method and conditions named.
Key:
[1] = biological target: huNABA-avi-his (hybrid protein N-A1-B3-A2: N and A1 domains of human BGP, B3 domain of human CEA, A2 domain of BGP, with precision protease site, avi tag and (His)6 tag), biotinylated (human); test: Proteon SPR, antibody analyte on biotinylated NABA (Neutravidin chip); concentrations from paragraph 235
[2] = biological target: huNABA-avi-his (hybrid protein N-A1-B3-A2: N and A1 domains of human BGP, B3 domain of human CEA, A2 domain of BGP, with precision protease site, avi tag and (His)6 tag), biotinylated (human); test: condition: analyte concentrations of 100, 50, 25, 12.5, 6.25, and 0 nM; SPR (Proteon), antibody as analyte on biotinylated NABA immobilized on a Neutravidin-coated chip

- binding [1]: no binding (tested: 100 nM)
- binding [2]: no binding
B1: antibody with heavy chain CH7A (W95Y) and light chain 2F1 (antibody, V domains shown)
VH: QVQLVQSGSELKKPGASVKVSCKASGYTFTEFGMNWVRQAPGQGLEWMGWINTKTGEATYVEEFKGRFVFSLDTSVSTAYLQISSLKAEDTAVYYCARYDFYDYVEAMDYWGQGTTVTVSS
VL: DIQMTQSPSSLSASVGDRVTITCKASAAVGTYVAWYQQKPGKAPKLLIYSASYRKRGVPSRFSGSGSGTDFTLTISSLQPEDFATYYCHQYYTYPLFTFGQGTKLEIKR
